Sequences of proteins named here, by UniProt entry; tags and fusion partners are left off.
UniProt P09471, whole entry, looked up: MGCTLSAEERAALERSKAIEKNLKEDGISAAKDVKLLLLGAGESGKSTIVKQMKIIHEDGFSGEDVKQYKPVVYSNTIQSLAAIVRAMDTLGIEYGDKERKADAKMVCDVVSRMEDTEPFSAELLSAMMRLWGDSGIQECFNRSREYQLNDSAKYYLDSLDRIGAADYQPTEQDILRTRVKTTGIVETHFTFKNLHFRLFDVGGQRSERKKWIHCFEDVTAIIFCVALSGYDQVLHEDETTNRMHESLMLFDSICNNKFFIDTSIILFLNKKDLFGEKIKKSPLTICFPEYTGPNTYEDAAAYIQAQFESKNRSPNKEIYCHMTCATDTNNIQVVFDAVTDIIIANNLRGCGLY

About 770 (0.35%) of roughly 220,000 compounds were called active. The shares of active, inactive and inconclusive entries below differ from those in the screen. Rule as the data show it: active = binding response below about 49% or above about 150%; inconclusive = no clear call, values can overlap the other calls; inactive = in between.
The compounds below were run against Guanine nucleotide-binding protein G(o) subunit alpha (Homo sapiens) (UniProt P09471) (assay: RGS7-Galphao binding modulators, primary screen, biochemical, multiplexed bead flow cytometry (AID 1439;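 also: fluorescent Galphao held in activated GDP-AlF4 state binding bead-coupled RGS7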)). Conditions: at 10 µM, actives lie on both sides.
For CSC1=NC(C)N2C(SC)=NC(C)N12 (stereo unspecified), the binding response (% of control) was inconclusive: 117%.
In the case of Cc1ccc2oc(C(F)(F)C(F)F)cc(=O)c2c1, the binding response (% of control) is reported as inconclusive: 106%.
With NS(=O)(=O)c1ccc(CNS(=O)(=O)c2cc(Cl)ccc2Cl)cc1 the binding response (% of control) was inconclusive: 108%.
For CCOC(=O)Cc1ccc(NC(=O)c2cccc([N+](=O)[O-])c2)cc1, the binding response (% of control) was inconclusive: 109%.
C/C(CC1CC(C)(C)OC1=O)=N\NC(N)=S (stereo unspecified) was tested, and the binding response (% of control) was inconclusive: 54.1%.
With CC(C)(CNS(=O)(=O)c1ccc(F)cc1)CNS(=O)(=O)c1ccc(F)cc1 the binding response (% of control) was inactive: 114%.
For Cc1cc(C)c2[nH]c(=O)c(CN(Cc3cccnc3)C(=S)NCCCN(C)C)cc2c1, the binding response (% of control) was inactive: 87%.
With CC(O)[C@H]1CNC(=O)C(=O)N1CCC12CC3CC(CC(C3)C1)C2 (stereo partly specified) the binding response (% of control) was inconclusive: 105%.
For O=C(Cc1csc(Nc2nc(=S)[nH]c3ccccc23)n1)N1CCN(c2cccc(C(F)(F)F)c2)CC1, the binding response (% of control) was inactive: 101%.
In the case of C=CCNC(=O)C(=O)NCCOc1ccccc1Cl, the binding response (% of control) is reported as inactive: 102%.
CCN(CC)c1ccc(/C=C2\C(=O)c3ccc(C(=O)O)cc3C2=O)cc1 was tested, and the binding response (% of control) was inactive: 94.9%.
C=C(C)C(=O)Nc1cccc(C2=NOC3(C2)C[C@@H](C(N)=O)N(C(=O)C2(C)CC2)C3)c1 (stereo partly specified) was tested, and the binding response (% of control) was inconclusive: 86.5%.
In the case of COc1ccc(CCNC(=O)CSCc2c(F)cccc2Cl)cc1OC, the binding response (% of control) is reported as inconclusive: 122%.
With CN(Cc1cc2ccccc2[nH]c1=O)C(=O)COc1ccccc1 the binding response (% of control) was inconclusive: 13.6%.
With COc1cc(/C=C(/C#N)c2nc(-c3cc4ccccc4oc3=O)cs2)cc([N+](=O)[O-])c1O the binding response (% of control) was inconclusive: 121%.
With COc1ccc(C(=O)/C=C/Nc2ccc(S(N)(=O)=O)cc2)cc1OC the binding response (% of control) was inconclusive: 99.1%.
With CCOC(=O)c1cc(C#N)c(N2CCN(c3ccc(OC)cc3)CC2)[nH]c1=O the binding response (% of control) was inconclusive: 93%.
With Nc1ncncc1-c1ccc2ccccc2c1 the binding response (% of control) was inconclusive: 148%.
ClCc1csc(N/N=C/c2cccs2)n1 was tested, and the binding response (% of control) was inconclusive: 105%.
Cn1cc(Br)c(-c2cccc(N3C(=O)CCCC3=O)c2)n1 was tested, and the binding response (% of control) was inconclusive: 83.5%.
For C/C(=N\O)c1ccc(Cl)c(Cl)c1, the binding response (% of control) was inconclusive: 84.7%.
With O=C(Cn1nc(Cc2ccncc2)c2ccccc2c1=O)Nc1cccnc1Cl the binding response (% of control) was inconclusive: 114%.
Cc1cccc(NC(=S)NC2CC3CCCC(C2)N3Cc2ccccc2)c1C (stereo unspecified) was tested, and the binding response (% of control) was inconclusive: 104%.
With CC(=O)OCC(=O)[C@@]1(O)CC[C@H]2[C@@H]3CCC4=CC(=O)CC[C@]4(C)[C@H]3C(=O)C[C@@]21C the binding response (% of control) was inconclusive: 114%.
With C/C(=N\NC(=O)c1ccc(F)cc1)c1ccc(N2CCOCC2)cc1 the binding response (% of control) was inconclusive: 95.3%.
In the case of CC(NC(=O)COC(=O)C1CSC2(C)CCC(=O)N12)C12CC3CC(CC(C3)C1)C2 (stereo unspecified), the binding response (% of control) is reported as inactive: 103%.
CN(c1ccc(C(=O)Nc2ccccn2)cc1)S(=O)(=O)c1ccccc1 was tested, and the binding response (% of control) was inconclusive: 122%.
For COc1ccc(-c2nnc(NC(=O)Cc3ccccc3)s2)c(OC)c1, the binding response (% of control) was inconclusive: -3.34%.
CCOc1ccc(C(C)=O)cc1CSc1nnnn1-c1ccc(O)cc1 was tested, and the binding response (% of control) was inconclusive: 96%.
With CCOC(=O)N1CCC(N2CCCC(CO)(Cc3ccccc3C)C2)CC1 (stereo unspecified) the binding response (% of control) was inactive: 96.3%.
In the case of O=C1c2cccnc2C(Nc2cccc(F)c2)N1Cc1ccco1 (stereo unspecified), the binding response (% of control) is reported as inconclusive: 112%.
In the case of c1ccc(C2=Nn3c(Cn4nnc5ccccc54)nnc3SC2)cc1, the binding response (% of control) is reported as inconclusive: 123%.
Cn1c(N)c(C(=O)COC(=O)CCCOc2ccc(Cl)cc2Cl)c(=O)n(C)c1=O was tested, and the binding response (% of control) was inconclusive: 123%.
For COc1ccc(C2C3=C(CCCC3=O)Nc3nc(SCc4ccccc4)nn32)cc1OC (stereo unspecified), the binding response (% of control) was inactive: 104%.
COC(=O)c1cc(-c2ccc(S(=O)(=O)N3CCCC3)cc2)c(C(F)(F)F)s1 was tested, and the binding response (% of control) was inconclusive: 72.2%.
With O=C(O)c1cccnc1SCC(=O)N1CCCc2ccccc21 the binding response (% of control) was inconclusive: 87.2%.
With CCN(C(=O)CSc1nnc2nc(C)cc(C)n12)c1ccccc1 the binding response (% of control) was inactive: 103%.
With COc1ccc(OC)c(NC(=O)CN(Cc2ccccc2)S(C)(=O)=O)c1 the binding response (% of control) was inactive: 91.5%.
With O=C(CC1NCCN(Cc2ccccc2)C1=O)Nc1ccc(Cl)cc1 (stereo unspecified) the binding response (% of control) was inconclusive: 98.2%.
O=C(CSc1nnc(-c2cccnc2)o1)NNC(=O)c1ccc(Br)cc1 was tested, and the binding response (% of control) was inconclusive: 107%.
In the case of CC(=O)Nc1ccc2nc(NC(=O)c3cccs3)sc2c1, the binding response (% of control) is reported as inconclusive: 91%.
Cc1nnc(SCc2nc3scc(-c4ccccc4)c3c(=O)[nH]2)s1 was tested, and the binding response (% of control) was inconclusive: 101%.
For Cc1ccc(-c2csc(=Nc3cccnc3)n2CCCn2ccnc2)cc1C, the binding response (% of control) was inactive: 104%.
For Cc1ccc(C(=O)OCC(=O)Nc2c(Cl)cc(S(N)(=O)=O)cc2Cl)o1, the binding response (% of control) was inconclusive: 111%.
With O=C(OCC(=O)N1CCc2ccccc21)c1ccccc1 the binding response (% of control) was inactive: 103%.
In the case of O=C(CSc1ccc(-c2cccs2)nn1)c1cccs1, the binding response (% of control) is reported as inactive: 101%.
O=C(NN1C(=O)C2CC=C(Cl)CC2C1=O)c1ccncc1 (stereo unspecified) was tested, and the binding response (% of control) was inactive: 98.2%.
CCN(CC)Cc1c(O)c(Cl)cc2c(C)cc(=O)oc12 was tested, and the binding response (% of control) was inconclusive: 81.2%.
O=C(Nc1ccn([C@H]2CC[C@@H](CO)O2)c(=O)n1)c1ccccc1 was tested, and the binding response (% of control) was inconclusive: 126%.
For COC(=O)CCCC1=CC2=CC(=O)C(C)(OC(=O)c3cccs3)C(=O)C2=CN1C1CCCC1 (stereo unspecified), the binding response (% of control) was inconclusive: 103%.
COc1ccc(C2CC(c3ccc(OC)c(OC)c3)=NN2S(C)(=O)=O)cc1 (stereo unspecified) was tested, and the binding response (% of control) was inconclusive: 57.5%.
In the case of O=C(CSc1nc2ncc(Cl)cc2[nH]1)NC1CCS(=O)(=O)C1 (stereo unspecified), the binding response (% of control) is reported as inconclusive: 92.4%.
FC(F)(F)COc1cc(-c2nnc(SCc3ccccc3)n2Cc2ccco2)cc(OCC(F)(F)F)n1 was tested, and the binding response (% of control) was inconclusive: 74.1%.
For CSc1ccc(CNc2nnnn2C)cc1, the binding response (% of control) was inconclusive: 115%.
With CN(C)c1nc(N)nc(N(c2ccccc2)c2ccccc2)n1 the binding response (% of control) was inactive: 100%.
For CCC(=O)Nc1cccc(C(=O)c2ccc(C)c(C)c2)c1, the binding response (% of control) was inconclusive: 97.6%.
For COCCCn1c(-c2cccs2)nc2nc3ccccc3nc21, the binding response (% of control) was inconclusive: 105%.
For CCOC(=O)CN(C(=O)CSc1nnc(COc2ccc(OC)cc2)n1CC)c1ccccc1, the binding response (% of control) was inconclusive: 106%.
In the case of CN(C)CCP(=O)(c1ccccc1)c1ccccc1, the binding response (% of control) is reported as inconclusive: 88.5%.
For COc1cccc(-c2nc(-c3ccccc3)nc(N3CCN(C)CC3)c2C#N)c1, the binding response (% of control) was inconclusive: 104%.
CC(C)CN(CC(C)C)C(=O)Nc1ccc(F)cc1F was tested, and the binding response (% of control) was inconclusive: 128%.
For Cc1nc(NC(=O)CSc2nncs2)c(Cl)cc1Cl, the binding response (% of control) was inconclusive: 65%.
Cc1ccnc(NC(=O)Cc2ccc(F)cc2)n1 was tested, and the binding response (% of control) was inconclusive: 126%.
For COc1ccc(N/C=C2\C(=O)c3c(sc(C)c3C)N(C)S2(=O)=O)cc1, the binding response (% of control) was inconclusive: 79.6%.
O=S(=O)(c1cc(Cl)ccc1Cl)n1cccn1 was tested, and the binding response (% of control) was inactive: 101%.
In the case of O=[N+]([O-])c1ccc(S(=O)(=O)N2CCSC2c2ccco2)cc1 (stereo unspecified), the binding response (% of control) is reported as inconclusive: 138%.
Nc1cc(C(=O)N/N=C/c2cccc([N+](=O)[O-])c2)n[nH]c1=O was tested, and the binding response (% of control) was inconclusive: 97.4%.
In the case of COc1ccc(NC(=O)CC2C(=O)N(C)C(=S)N2CCc2ccc(F)cc2)cc1 (stereo unspecified), the binding response (% of control) is reported as inconclusive: 138%.
For CSc1nc(N)c(C(=O)Nc2ccc([N+](=O)[O-])cc2)s1, the binding response (% of control) was inconclusive: -17%.
In the case of Cc1ccc(OCCN2C(=O)c3ccccc3C2=O)c(C)c1, the binding response (% of control) is reported as inactive: 92.2%.
With COc1cc(/C=C/c2nc3ccc([N+](=O)[O-])cc3s2)ccc1OCC(=O)O the binding response (% of control) was inconclusive: 59.3%.
For Cc1ccc(NC(=O)CN2CCc3ccccc3C2)cc1S(=O)(=O)N(C)C, the binding response (% of control) was inconclusive: 122%.
For O=C(Nc1cccc2ccccc12)c1ccccc1, the binding response (% of control) was inconclusive: 89.9%.
CCCc1cnc(NCCNCC(O)COc2ccc(Cl)c(Cl)c2)nc1 (stereo unspecified) was tested, and the binding response (% of control) was inconclusive: -70.6%.
With NC(=O)NCC(=O)N1CCC(C(O)(c2ccccc2)c2ccccc2)CC1 the binding response (% of control) was inconclusive: 84.4%.
With CCCCCC(=O)Nc1cccc(C2=NOC3(C2)C[C@@H](C(N)=O)N(C(=O)c2cc([N+](=O)[O-])cc([N+](=O)[O-])c2)C3)c1 (stereo partly specified) the binding response (% of control) was inconclusive: 91.1%.
CCCCCCCn1c2c(c(=N)c3ccccc31)CCC2 was tested, and the binding response (% of control) was inactive: 103%.
With COc1ccccc1CNC(=O)CN1CCN(S(=O)(=O)c2cccs2)CC1 the binding response (% of control) was inconclusive: 80.8%.
For COc1cc(NC(=O)C2CC(=O)NC3=C2C(=O)CCC3)c(OC)cc1Cl (stereo unspecified), the binding response (% of control) was inactive: 98.2%.
NNc1ccccc1C(F)(F)F was tested, and the binding response (% of control) was inconclusive: 151%.
For COc1ccc(C(=O)O/N=C(\N)Cc2ccc([N+](=O)[O-])cc2)c(OC)c1, the binding response (% of control) was inconclusive: 101%.
With CC1(C)CC2CC(C)(CN2Cc2c(O)ccc3ccccc23)C1 (stereo unspecified) the binding response (% of control) was inactive: 97.5%.
CN1C(=O)NC(NS(=O)(=O)c2ccc(N)cc2)(C(F)(F)F)C1=O (stereo unspecified) was tested, and the binding response (% of control) was inconclusive: 97.2%.
For CCCCc1nnc(NC(=O)COC)s1, the binding response (% of control) was inconclusive: 107%.
For Cc1[nH]c2c(ccc3cccnc32)c1C, the binding response (% of control) was inconclusive: 103%.
For CCOC(=O)Cn1c(=NC(=O)CC)sc2c(C)cc(C)cc21, the binding response (% of control) was inconclusive: 16%.
In the case of O=C1CCCCC1Sc1nnc(Nc2ccccc2)s1 (stereo unspecified), the binding response (% of control) is reported as inconclusive: 135%.
For Cc1oc(CN2CCOCC2)cc1C(=O)O, the binding response (% of control) was inconclusive: 104%.
CN(C)c1nc(=Nc2cccc(Cl)c2)ss1 was tested, and the binding response (% of control) was inconclusive: 45.5%.
With Cc1ccc(NC(=O)c2ccc(OC(=O)CCN3C(=O)c4ccccc4C3=O)cc2)cc1 the binding response (% of control) was inactive: 106%.
In the case of C#CCNC(=O)C1=C[C@H](C2CCCCC2)[C@@H](CCCO)[C@H](OCC)O1, the binding response (% of control) is reported as active: 38%.

Reference: PubChem BioAssay AID1439 (NMMLSC, 2008)
